Taken from: PubChem BioAssay AID720505 (Drosophila RNAi Screening Center, 2013)

Aim: 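Genes needed for store-operated calcium entry in fly cells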 (primary screen)
System: Drosophila S2R+ cells
Reagent: long dsRNA against Drosophila genes
Treatment: thapsigargin (2 µM) in calcium-free buffer to empty internal stores, then 2 mM calcium added back
Detection: 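Fluo-4 signal in 384-well plates read on a FLIPR after thapsigargin (2 µM, calcium-free) store depletion and 2 mM calcium add-back; unnormalised mean endpoint per well; screen run twice, selected wells retested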
Scale: calcium signal and retest calcium signal: higher = more calcium entry after store depletion
Active means: 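About 1500 genes called as lowering calcium entry, by varying amounts, judged against per-plate control wells with STIM1 as positive and Rho1 as negative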
Meaning of the calls: active = called as lowering calcium entry; inactive = not called
The deposit covers about 20,000 reagents; this is a random part of those with a known target gene and a result. Over the whole deposit, about 2,100 (10%) got an active call. 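Raw plate signals without normalisation; calls rest on control-based scores that were not deposited; replicate 2 separates called from uncalled poorly.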 A plus sign joins genes that one reagent is predicted to hit. Not given: the amount of reagent, the time to read-out.

target | DRSC id | calcium signal, replicate 1 | calcium signal, replicate 2 | retest calcium signal, replicate 1 | retest calcium signal, replicate 2 | Outcome
CG42816 | DRSC11230 | 170 | 234 | – | – | inactive
CG6729 | DRSC02984 | 89.4 | 151 | 78.1 | 89.1 | inactive
CG6729 | DRSC22793 | 78.2 | 86.7 | – | – | inactive
lncRNA:iab8 (long non-coding RNA:iab8) | DRSC13187 | 72.5 | 88.7 | – | – | inactive
lncRNA:iab8 (long non-coding RNA:iab8) | DRSC22252 | 100 | 144 | – | – | inactive
CG9662 | DRSC00723 | 166 | 108 | – | – | inactive
CG33969 | DRSC11777 | 79.2 | 132 | – | – | inactive
CG31064 | DRSC14756 | 157 | 153 | – | – | inactive
CG31064 | DRSC15941 | 153 | 158 | – | – | inactive
CG31064 | DRSC15942 | 174 | 125 | – | – | inactive
CG31064 | DRSC15943 | 168 | 139 | – | – | inactive
CG13008 | DRSC19527 | 112 | 180 | – | – | inactive
CG13008 | DRSC19528 | 104 | 177 | – | – | inactive
Rpn12R (Regulatory particle non-ATPase 12-related) | DRSC09842 | 95.1 | 204 | – | – | inactive
Dnah3 (dynein, axonemal, heavy chain 3) | DRSC08513 | 79.1 | 76.6 | – | – | inactive
AP-1mu (Adaptor Protein complex 1, mu subunit) | DRSC14089 | 112 | 176 | – | – | inactive
CG9410 + CG15908 | DRSC04976 | 93.3 | 142 | – | – | active
CG9410 + CG15908 | DRSC05001 | 184 | 198 | – | – | inactive
mim (missing-in-metastasis) | DRSC05013 | 67.5 | 97.3 | – | – | active
mim (missing-in-metastasis) | DRSC23045 | 137 | 152 | – | – | inactive
CG8160 | DRSC07086 | 95.2 | 219 | 155 | 87.7 | inactive
CG8160 | DRSC21434 | 183 | 102 | – | – | inactive
CG9014 | DRSC01979 | 126 | 98.7 | – | – | inactive
CG34229 | DRSC06316 | 96.3 | 205 | – | – | inactive
l(2)efl (lethal (2) essential for life) | DRSC04698 | 145 | 78.5 | – | – | inactive
CG12682 | DRSC17873 | 278 | 98.6 | – | – | inactive
CG14459 | DRSC11719 | 77 | 84.9 | – | – | inactive
CG14459 | DRSC23039 | 115 | 157 | – | – | inactive
GstE10 (Glutathione S transferase E10) | DRSC06671 | 221 | 139 | – | – | inactive
CG33124 | DRSC00298 | 143 | 139 | – | – | inactive
CG14435 | DRSC17928 | 231 | 146 | – | – | inactive
CG14435 | DRSC23282 | 104 | 142 | – | – | inactive
Cpr47Ea (Cuticular protein 47Ea) | DRSC07333 | 83.7 | 128 | – | – | inactive
SkpB (SKP1-related B) | DRSC07683 | 92 | 115 | – | – | inactive
Prp31 (Pre-mRNA processing factor 31) | DRSC10735 | 90.3 | 81.4 | – | – | inactive
Dnali1 (Dynein axonemal light intermediate chain 1) | DRSC16158 | 113 | 135 | – | – | inactive
CG43795 | DRSC04192 | 112 | 188 | – | – | inactive
CG43795 | DRSC04193 | 98.4 | 143 | – | – | inactive
CG43795 | DRSC04194 | 167 | 163 | – | – | inactive
CG43795 | DRSC04309 | 166 | 203 | – | – | inactive
CG43795 | DRSC04310 | 142 | 159 | – | – | inactive
CG43795 | DRSC04497 | 83.1 | 106 | – | – | inactive
CG43795 | DRSC22826 | 115 | 87.5 | – | – | inactive
mRpL27 (mitochondrial ribosomal protein L27) | DRSC22568 | 84.2 | 180 | – | – | inactive
CG10417 | DRSC04846 | 142 | 110 | – | – | inactive
ATPsynD (ATP synthase, subunit D) | DRSC14093 | 119 | 150 | – | – | inactive
Sec24AB (Secretory 24AB) | DRSC06478 | 205 | 195 | – | – | inactive
CG4582 | DRSC15605 | 122 | 77.9 | – | – | inactive
alpha-Est6 (alpha-Esterase-6) | DRSC12618 | 91.7 | 103 | – | – | inactive
Taf12L (TBP-associated factor 30kD subunit alpha-2) | DRSC00467 | 208 | 81.5 | – | – | inactive
bsd (back seat driver) | DRSC05953 | 77.2 | 81.1 | – | – | inactive
Jhbp2 (Juvenile hormone binding protein 2) | DRSC12292 | 110 | 119 | – | – | inactive
CG13692 | DRSC00361 | 93.3 | 108 | – | – | inactive
CG15144 | DRSC02445 | 128 | 110 | – | – | inactive
Blm (Bloom syndrome helicase) | DRSC16911 | 123 | 85.6 | – | – | inactive
Glut4EF (Glucose transporter 4 enhancer factor) | DRSC14347 | 176 | 83.8 | – | – | inactive
Glut4EF (Glucose transporter 4 enhancer factor) | DRSC14512 | 163 | 89.7 | – | – | inactive
Glut4EF (Glucose transporter 4 enhancer factor) | DRSC14541 | 156 | 80.6 | – | – | inactive
Glut4EF (Glucose transporter 4 enhancer factor) | DRSC14542 | 69.7 | 135 | – | – | active
Glut4EF (Glucose transporter 4 enhancer factor) | DRSC14543 | 57 | 138 | – | – | active
Glut4EF (Glucose transporter 4 enhancer factor) | DRSC23038 | 133 | 180 | – | – | inactive
CG14309 | DRSC14788 | 187 | 204 | – | – | inactive
CG12209 | DRSC06119 | 85.5 | 148 | – | – | inactive
CG8321 | DRSC07148 | 234 | 132 | – | – | inactive
Ccdc85 | DRSC00501 | 83.8 | 80.6 | – | – | inactive
Ccdc85 | DRSC23173 | 137 | 115 | – | – | inactive
CG14110 | DRSC10113 | 109 | 119 | – | – | inactive
CR18275 (pseudo) | DRSC18151 | 64.2 | 108 | – | – | active
CG5255 | DRSC15754 | 144 | 185 | – | – | inactive
SKIP (Shal K[+] channel interacting protein) | DRSC14713 | 176 | 152 | – | – | inactive
SKIP (Shal K[+] channel interacting protein) | DRSC14714 | 205 | 149 | – | – | inactive
SKIP (Shal K[+] channel interacting protein) | DRSC15864 | 204 | 178 | – | – | inactive
SKIP (Shal K[+] channel interacting protein) | DRSC16195 | 65.8 | 119 | 166 | 134 | active
SKIP (Shal K[+] channel interacting protein) | DRSC16196 | 183 | 150 | 8151 | 174 | inactive
phyl (phyllopod) | DRSC07663 | 107 | 117 | – | – | inactive
CG13360 | DRSC18536 | 65.5 | 142 | 68.6 | 99.2 | active
CG5112 | DRSC15718 | 101 | 118 | – | – | inactive
CG17377 | DRSC00950 | 77.7 | 159 | 8648 | 177 | inactive
CG17377 | DRSC02615 | 73.7 | 119 | – | – | inactive
CG17377 | DRSC21811 | 56 | 116 | – | – | active
CG42296 | DRSC00394 | 125 | 112 | – | – | inactive
JMJD6 (Jumonji domain containing 6) | DRSC15787 | 203 | 273 | – | – | inactive
CG4502 | DRSC02755 | 81.5 | 150 | – | – | inactive
CG4502 | DRSC23237 | 79 | 152 | – | – | inactive
Dll (Distal-less) | DRSC04610 | 125 | 167 | – | – | inactive
SC35 (SR family splicing factor SC35) | DRSC02502 | 141 | 87.3 | – | – | inactive
SC35 (SR family splicing factor SC35) | DRSC03425 | 136 | 155 | – | – | inactive
Sodq (Sodesque) | DRSC15924 | 258 | 185 | – | – | inactive
CG15571 | DRSC18059 | 152 | 122 | – | – | inactive
CG8001 | DRSC08611 | 164 | 114 | – | – | inactive
Obp83g (Odorant-binding protein 83g) | DRSC12269 | 95.5 | 125 | – | – | inactive
pncr004:X (retired record) | DRSC19295 | 121 | 131 | – | – | inactive
jtb (jetboil) | DRSC06868 | 174 | 119 | – | – | inactive
na (narrow abdomen) | DRSC19639 | 115 | 150 | – | – | inactive
CG9861 | DRSC04576 | 165 | 113 | – | – | inactive
Osbp (Oxysterol binding protein) | DRSC16779 | 158 | 340 | – | – | inactive
CG13332 | DRSC06367 | 107 | 210 | – | – | inactive
Hus1-like | DRSC12353 | 93.7 | 118 | – | – | inactive
Sap-r (Saposin-related) | DRSC16849 | 113 | 140 | 6286 | 160 | inactive
Sap-r (Saposin-related) | DRSC21916 | 82.4 | 240 | – | – | inactive
CG34282 | DRSC16298 | 129 | 120 | – | – | inactive
CG8541 | DRSC10989 | 122 | 95.9 | – | – | inactive
CG13563 | DRSC22153 | 98.2 | 218 | – | – | inactive
Letm1 | DRSC04476 | 108 | 91.9 | – | – | inactive
CR18228 (pseudo) | DRSC15317 | 68.7 | 160 | – | – | active
CG13511 | DRSC04153 | 97.1 | 177 | – | – | inactive

7 successive entries already listed:
target | DRSC id | calcium signal, replicate 1 | calcium signal, replicate 2 | retest calcium signal, replicate 1 | retest calcium signal, replicate 2 | Outcome
Dnah3 (dynein, axonemal, heavy chain 3) | DRSC08513 | 79.1 | 76.6 | – | – | inactive
AP-1mu (Adaptor Protein complex 1, mu subunit) | DRSC14089 | 112 | 176 | – | – | inactive
CG9410 + CG15908 | DRSC04976 | 93.3 | 142 | – | – | active
CG9410 + CG15908 | DRSC05001 | 184 | 198 | – | – | inactive
mim (missing-in-metastasis) | DRSC05013 | 67.5 | 97.3 | – | – | active
mim (missing-in-metastasis) | DRSC23045 | 137 | 152 | – | – | inactive
CG8160 | DRSC07086 | 95.2 | 219 | 155 | 87.7 | inactive
